Experimental data reported in the supplement of paper PMC6411743.
± gives the standard deviation of the averaged measurements. This is a selection; strong and weak results do not stand in their true shares. Small differences around the control level are noise.

Amino acid sequences for entries named in this document (tags omitted). A change or cut given only in a name is not applied to a line headed by its entry.
UniProt P63151: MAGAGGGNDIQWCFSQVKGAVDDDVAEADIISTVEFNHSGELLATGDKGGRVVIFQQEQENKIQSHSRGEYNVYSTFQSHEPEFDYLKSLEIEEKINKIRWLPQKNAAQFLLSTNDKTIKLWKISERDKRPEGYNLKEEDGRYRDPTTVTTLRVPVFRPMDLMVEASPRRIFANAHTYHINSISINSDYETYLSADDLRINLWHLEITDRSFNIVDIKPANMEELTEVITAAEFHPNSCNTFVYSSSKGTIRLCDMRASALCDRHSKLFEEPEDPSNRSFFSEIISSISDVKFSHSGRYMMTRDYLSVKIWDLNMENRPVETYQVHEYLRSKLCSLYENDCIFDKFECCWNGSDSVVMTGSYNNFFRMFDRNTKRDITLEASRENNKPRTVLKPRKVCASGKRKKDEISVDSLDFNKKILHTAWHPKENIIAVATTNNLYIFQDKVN
UniProt O94901, whole entry: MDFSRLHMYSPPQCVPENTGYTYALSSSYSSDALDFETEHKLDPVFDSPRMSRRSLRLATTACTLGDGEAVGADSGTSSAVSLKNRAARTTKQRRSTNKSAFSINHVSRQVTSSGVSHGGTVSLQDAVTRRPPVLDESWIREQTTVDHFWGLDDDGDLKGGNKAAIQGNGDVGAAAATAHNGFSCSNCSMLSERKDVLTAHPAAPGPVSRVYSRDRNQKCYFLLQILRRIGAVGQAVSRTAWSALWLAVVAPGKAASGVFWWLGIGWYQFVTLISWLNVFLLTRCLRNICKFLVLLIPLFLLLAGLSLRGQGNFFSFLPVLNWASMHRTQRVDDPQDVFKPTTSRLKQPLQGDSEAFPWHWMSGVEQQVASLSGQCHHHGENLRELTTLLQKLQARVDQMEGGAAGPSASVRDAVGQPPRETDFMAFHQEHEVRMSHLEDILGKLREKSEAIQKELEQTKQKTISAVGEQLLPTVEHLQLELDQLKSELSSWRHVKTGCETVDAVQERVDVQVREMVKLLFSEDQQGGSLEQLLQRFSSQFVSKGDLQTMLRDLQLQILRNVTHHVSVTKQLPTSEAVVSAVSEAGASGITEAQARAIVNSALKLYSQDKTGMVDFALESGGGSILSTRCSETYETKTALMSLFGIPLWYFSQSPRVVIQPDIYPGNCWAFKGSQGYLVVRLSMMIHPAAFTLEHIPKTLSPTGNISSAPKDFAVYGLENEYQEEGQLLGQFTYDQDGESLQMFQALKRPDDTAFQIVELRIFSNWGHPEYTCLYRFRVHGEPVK
UniProt P61421, whole entry: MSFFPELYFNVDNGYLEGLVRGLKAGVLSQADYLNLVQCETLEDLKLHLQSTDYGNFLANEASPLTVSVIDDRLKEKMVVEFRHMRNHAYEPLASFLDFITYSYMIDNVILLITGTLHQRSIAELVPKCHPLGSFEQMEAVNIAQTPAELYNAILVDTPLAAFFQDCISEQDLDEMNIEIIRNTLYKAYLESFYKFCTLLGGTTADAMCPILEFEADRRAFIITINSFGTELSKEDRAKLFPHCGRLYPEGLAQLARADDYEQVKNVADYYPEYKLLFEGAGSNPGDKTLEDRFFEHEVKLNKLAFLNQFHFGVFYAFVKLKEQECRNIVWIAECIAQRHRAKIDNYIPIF
UniProt Q8TAG9: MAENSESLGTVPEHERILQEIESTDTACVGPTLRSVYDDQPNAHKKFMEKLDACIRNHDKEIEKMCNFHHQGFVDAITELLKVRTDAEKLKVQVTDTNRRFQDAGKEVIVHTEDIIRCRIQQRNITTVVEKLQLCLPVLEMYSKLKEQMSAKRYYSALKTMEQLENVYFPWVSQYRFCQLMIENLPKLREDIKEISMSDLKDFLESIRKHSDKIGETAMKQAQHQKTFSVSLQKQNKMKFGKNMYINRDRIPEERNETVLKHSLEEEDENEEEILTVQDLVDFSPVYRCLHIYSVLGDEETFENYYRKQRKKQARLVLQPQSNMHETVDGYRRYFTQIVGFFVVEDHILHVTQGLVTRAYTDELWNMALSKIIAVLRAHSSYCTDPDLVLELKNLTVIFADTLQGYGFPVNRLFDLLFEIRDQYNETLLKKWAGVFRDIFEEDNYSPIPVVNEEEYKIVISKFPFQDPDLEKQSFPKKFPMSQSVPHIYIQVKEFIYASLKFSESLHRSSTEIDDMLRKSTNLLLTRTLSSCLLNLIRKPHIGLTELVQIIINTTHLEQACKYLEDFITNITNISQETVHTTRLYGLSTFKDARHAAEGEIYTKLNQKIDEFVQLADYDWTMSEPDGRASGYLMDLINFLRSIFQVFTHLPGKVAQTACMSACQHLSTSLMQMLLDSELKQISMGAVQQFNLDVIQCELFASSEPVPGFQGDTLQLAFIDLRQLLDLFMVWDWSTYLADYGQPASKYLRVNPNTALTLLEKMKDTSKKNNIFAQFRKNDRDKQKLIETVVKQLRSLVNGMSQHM
UniProt Q6NXE6: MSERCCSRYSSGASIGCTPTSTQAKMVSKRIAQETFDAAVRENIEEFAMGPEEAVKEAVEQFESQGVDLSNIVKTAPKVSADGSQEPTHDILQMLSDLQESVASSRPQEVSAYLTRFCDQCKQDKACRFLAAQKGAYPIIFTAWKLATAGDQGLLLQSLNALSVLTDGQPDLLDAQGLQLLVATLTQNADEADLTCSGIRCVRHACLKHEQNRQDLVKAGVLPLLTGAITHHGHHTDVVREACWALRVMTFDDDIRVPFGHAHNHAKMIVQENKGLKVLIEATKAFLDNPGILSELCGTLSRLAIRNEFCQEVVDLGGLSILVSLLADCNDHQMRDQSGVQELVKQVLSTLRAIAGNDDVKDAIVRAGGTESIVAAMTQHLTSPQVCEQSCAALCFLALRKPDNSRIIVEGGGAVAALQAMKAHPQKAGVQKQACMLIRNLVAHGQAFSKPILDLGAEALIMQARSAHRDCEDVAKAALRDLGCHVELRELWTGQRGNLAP
UniProt Q9ULV3: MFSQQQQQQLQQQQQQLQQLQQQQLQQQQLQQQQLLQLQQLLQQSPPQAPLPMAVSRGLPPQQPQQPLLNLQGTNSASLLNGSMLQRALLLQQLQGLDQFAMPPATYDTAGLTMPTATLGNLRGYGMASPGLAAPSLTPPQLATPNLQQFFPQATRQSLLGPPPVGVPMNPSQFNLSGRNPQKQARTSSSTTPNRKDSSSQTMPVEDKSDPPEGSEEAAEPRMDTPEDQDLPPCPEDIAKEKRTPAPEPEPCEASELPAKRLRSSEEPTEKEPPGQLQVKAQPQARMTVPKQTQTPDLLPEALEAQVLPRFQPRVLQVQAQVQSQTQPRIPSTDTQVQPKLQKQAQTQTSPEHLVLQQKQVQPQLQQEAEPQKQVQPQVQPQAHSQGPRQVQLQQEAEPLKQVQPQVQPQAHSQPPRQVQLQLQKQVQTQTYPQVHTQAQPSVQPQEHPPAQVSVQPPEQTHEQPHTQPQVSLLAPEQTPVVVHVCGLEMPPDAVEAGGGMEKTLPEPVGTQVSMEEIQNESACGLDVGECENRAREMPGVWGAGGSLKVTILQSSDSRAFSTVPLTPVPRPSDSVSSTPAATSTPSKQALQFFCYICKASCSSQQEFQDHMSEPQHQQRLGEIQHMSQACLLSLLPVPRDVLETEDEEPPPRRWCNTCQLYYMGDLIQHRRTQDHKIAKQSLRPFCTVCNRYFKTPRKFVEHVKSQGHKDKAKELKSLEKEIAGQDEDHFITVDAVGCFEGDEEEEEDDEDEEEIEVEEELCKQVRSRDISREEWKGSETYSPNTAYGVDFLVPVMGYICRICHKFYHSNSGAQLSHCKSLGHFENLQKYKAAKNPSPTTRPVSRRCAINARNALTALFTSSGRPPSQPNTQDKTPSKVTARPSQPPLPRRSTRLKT
UniProt P60660, whole entry: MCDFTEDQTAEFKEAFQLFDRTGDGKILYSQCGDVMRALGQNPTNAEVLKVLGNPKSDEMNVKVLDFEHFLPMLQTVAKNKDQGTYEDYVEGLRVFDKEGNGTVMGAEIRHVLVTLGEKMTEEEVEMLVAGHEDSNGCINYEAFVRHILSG
UniProt P68400, whole entry, looked up: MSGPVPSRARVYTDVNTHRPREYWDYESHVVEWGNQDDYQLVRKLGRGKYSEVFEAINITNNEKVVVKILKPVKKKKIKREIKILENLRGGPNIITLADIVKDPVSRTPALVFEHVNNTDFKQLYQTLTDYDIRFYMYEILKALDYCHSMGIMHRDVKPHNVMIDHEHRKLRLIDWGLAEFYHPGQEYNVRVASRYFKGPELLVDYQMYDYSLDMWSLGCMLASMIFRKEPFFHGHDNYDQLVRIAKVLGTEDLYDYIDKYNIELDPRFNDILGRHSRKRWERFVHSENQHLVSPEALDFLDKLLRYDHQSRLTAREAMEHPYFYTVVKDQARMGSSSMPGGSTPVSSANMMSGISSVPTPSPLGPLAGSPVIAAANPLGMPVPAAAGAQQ
UniProt Q9H936: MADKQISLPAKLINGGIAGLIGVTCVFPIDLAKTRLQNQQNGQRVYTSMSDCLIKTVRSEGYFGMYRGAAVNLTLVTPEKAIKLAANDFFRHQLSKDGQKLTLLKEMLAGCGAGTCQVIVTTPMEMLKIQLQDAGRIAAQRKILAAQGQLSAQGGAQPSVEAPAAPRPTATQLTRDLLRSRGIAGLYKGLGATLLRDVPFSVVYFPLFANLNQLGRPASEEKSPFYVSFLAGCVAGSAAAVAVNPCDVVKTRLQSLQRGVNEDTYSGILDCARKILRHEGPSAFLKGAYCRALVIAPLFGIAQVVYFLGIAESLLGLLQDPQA
UniProt Q9C0E2: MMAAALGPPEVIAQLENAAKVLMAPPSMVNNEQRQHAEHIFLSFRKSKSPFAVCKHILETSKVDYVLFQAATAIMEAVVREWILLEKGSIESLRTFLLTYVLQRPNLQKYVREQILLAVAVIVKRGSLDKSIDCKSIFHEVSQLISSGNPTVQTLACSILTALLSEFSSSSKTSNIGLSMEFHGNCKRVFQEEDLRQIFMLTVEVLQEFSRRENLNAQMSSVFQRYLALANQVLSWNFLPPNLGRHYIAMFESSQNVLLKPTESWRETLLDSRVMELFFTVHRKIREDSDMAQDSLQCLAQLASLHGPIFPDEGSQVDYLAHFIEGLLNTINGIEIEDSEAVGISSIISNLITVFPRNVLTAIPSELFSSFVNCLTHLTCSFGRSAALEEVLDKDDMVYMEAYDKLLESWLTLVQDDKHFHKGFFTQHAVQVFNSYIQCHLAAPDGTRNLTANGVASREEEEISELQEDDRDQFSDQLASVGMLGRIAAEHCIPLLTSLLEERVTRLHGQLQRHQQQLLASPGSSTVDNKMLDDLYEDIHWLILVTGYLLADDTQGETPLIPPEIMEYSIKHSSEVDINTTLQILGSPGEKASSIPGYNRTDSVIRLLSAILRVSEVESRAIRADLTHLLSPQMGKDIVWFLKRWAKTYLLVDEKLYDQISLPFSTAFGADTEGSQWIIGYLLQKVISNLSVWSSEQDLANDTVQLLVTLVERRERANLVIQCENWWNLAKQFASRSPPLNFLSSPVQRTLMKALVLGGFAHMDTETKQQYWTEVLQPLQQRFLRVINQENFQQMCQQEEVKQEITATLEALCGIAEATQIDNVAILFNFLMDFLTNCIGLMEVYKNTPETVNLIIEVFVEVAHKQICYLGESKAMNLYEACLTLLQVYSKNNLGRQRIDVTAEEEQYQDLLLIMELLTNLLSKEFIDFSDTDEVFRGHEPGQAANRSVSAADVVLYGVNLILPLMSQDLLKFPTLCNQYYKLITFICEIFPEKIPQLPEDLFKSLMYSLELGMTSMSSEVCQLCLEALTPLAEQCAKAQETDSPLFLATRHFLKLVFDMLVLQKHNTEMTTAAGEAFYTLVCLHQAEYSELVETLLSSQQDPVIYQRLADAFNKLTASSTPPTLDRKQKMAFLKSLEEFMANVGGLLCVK
UniProt P61803: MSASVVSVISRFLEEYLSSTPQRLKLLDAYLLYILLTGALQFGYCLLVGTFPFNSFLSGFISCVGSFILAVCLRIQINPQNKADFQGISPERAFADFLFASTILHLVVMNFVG
UniProt Q8IUX1: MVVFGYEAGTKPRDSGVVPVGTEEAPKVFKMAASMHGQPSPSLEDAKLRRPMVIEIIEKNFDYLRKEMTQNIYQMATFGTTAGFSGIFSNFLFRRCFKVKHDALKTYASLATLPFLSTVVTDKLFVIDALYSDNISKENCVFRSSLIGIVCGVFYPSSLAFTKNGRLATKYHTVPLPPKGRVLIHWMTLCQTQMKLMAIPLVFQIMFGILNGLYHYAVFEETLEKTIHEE
UniProt P25208: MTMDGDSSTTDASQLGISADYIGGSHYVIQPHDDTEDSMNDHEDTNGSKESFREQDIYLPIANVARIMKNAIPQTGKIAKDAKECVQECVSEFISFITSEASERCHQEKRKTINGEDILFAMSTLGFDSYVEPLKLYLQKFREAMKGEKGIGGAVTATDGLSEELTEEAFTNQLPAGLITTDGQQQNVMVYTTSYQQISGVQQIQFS
UniProt Q15631: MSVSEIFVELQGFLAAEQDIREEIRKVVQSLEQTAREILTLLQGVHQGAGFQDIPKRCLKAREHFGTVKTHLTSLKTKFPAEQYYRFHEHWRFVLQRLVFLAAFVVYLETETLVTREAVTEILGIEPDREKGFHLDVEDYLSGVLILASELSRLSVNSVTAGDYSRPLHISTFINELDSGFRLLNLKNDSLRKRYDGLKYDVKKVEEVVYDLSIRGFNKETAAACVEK

Compound: Nc1ncnc2c1ncn2[C@@H]1O[C@H](COP(=O)(O)OP(=O)(O)NP(=O)(O)O)[C@@H](O)[C@H]1O [adenylyl imidodiphosphate]
Experiment: NP40-soluble protein abundance relative to vehicle (solubility fold change) (ratio); higher = more soluble protein in presence of AMP-PNP
Outline: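 Each value is a fold change relative to the detergent-processed vehicle, calculated per replicate from vsn-normalised intensities. Jurkat crude lysate received eight concentrations (0.1 to 10 mM) for 10 min at room temperature and 3 min at 37 °C, then was solubilised in 0.8% NP40 with benzonase (60 min, 4 °C). The ultracentrifuged supernatant was TMT-labelled and run by LC-MS/MS in three independent experiments.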

Target | NP40-soluble protein abundance (concentration: 0.1mM) | NP40-soluble protein abundance (concentration: 0.5mM)
E9PMH5 and related entries (UniProt Q13490) | 1.01 ± 0.021 | 0.975 ± 0.064
F8VVA7 and related entries (UniProt P61923) | 1 ± 0.041 | 1.04 ± 0.1
E9PLL1 and related entries (UniProt O76062) | 0.99 ± 0.051 | 0.953 ± 0.058
E7EQY1 and related entries (UniProt Q96C01) | 0.975 ± 0.026 | 1.06 ± 0.12
E9PLI6 and related entries (UniProt Q8N9N8) | 0.962 ± 0.014 | 0.953 ± 0.034
E9PF32 and related entries (UniProt A2RUS2) | 0.995 ± 0.066 | 0.979 ± 0.051
E9PF16 and related entries (UniProt Q96CM8) | 1.03 ± 0.035 | 0.989 ± 0.044
F8W1S5 and related entries (UniProt Q00537) | 1.02 ± 0.029 | 1.01 ± 0.027
E9PLT2 and related entries (UniProt P17480) | 0.9843 ± 0.0093 | 1.02 ± 0.06
E5RJV1 and related entries (UniProt P63151) | 0.991 ± 0.021 | 0.99 ± 0.042
F8W1T6 and related entries (UniProt Q15434) | 0.9791 ± 0.0071 | 1.03 ± 0.014
E9PGC8 (UniProt P78559) | 0.984 ± 0.03 | 1 ± 0.046
E7EPN6 and related entries (UniProt P55347) | 1.01 ± 0.031 | 1 ± 0.049
F2Z2Y3 and related entries (UniProt Q9H8W3) | 1.01 ± 0.005 | 1.03 ± 0.022
F5H212 and related entries (UniProt P15822) | 0.987 ± 0.042 | 1.01 ± 0.08
E9PM92 and related entries (UniProt O00193+E9PM92) | 1.03 ± 0.024 | 1.15 ± 0.12
E9PLL0 and related entries (UniProt Q96EY5) | 1.02 ± 0.047 | 1.023 ± 0.0084
E7EMM4 and related entries (UniProt Q13510) | 0.995 ± 0.024 | 0.989 ± 0.022
E9PQY3 and related entries (UniProt P11117) | 1.01 ± 0.02 | 0.983 ± 0.037
F5H7T0 and related entries (UniProt Q96S38) | 0.996 ± 0.022 | 0.988 ± 0.017
F8VYC4 and related entries (UniProt P0DJD1+P0DJD0+F8VYC4) | 1.01 ± 0.048 | 0.998 ± 0.015
E7EPP6 and related entries (UniProt O14757) | 1.01 ± 0.018 | 0.961 ± 0.026
E9PHI4 and related entries (UniProt O94901) | 1.06 ± 0.037 | 0.99 ± 0.014
F5GYQ1 and related entries (UniProt P61421) | 1.04 ± 0.028 | 0.981 ± 0.084

Target | NP40-soluble protein abundance (concentration: 0.1mM) | NP40-soluble protein abundance (concentration: 0.5mM)
E7ESY0 and related entries (UniProt P32019) | 1 ± 0.04 | 0.969 ± 0.089
E7EW84 and related entries (UniProt Q8TAG9) | 1.01 ± 0.029 | 1.007 ± 0.0056
F8W950 and related entries (UniProt Q13155) | 1.03 ± 0.053 | 0.997 ± 0.043
F5H6I7 and related entries (UniProt Q6DD88) | 0.9872 ± 0.0028 | 1.038 ± 0.0067
E9PCD7 and related entries (UniProt Q9Y2E5) | 0.986 ± 0.013 | 0.973 ± 0.023
E9PDP5 and related entries (UniProt Q8IWZ3) | 1 ± 0.036 | 0.993 ± 0.035
F8VS36 and related entries (UniProt Q92994) | 1.09 ± 0.049 | 0.993 ± 0.015
F5H3X1 and related entries (UniProt Q6NXE6) | 1.03 ± 0.046 | 0.979 ± 0.04
E7EM64 and related entries (UniProt Q7L5N1) | 1.05 ± 0.014 | 1.01 ± 0.043
F5H8H2 and related entries (UniProt Q03426) | 1.01 ± 0.025 | 0.958 ± 0.08
E7EMK3 and related entries (UniProt Q14254) | 1.05 ± 0.054 | 1.03 ± 0.054
F5H514 and related entries (UniProt O95267) | 0.987 ± 0.013 | 1.01 ± 0.024
F5H269 and related entries (UniProt Q9Y485) | 0.987 ± 0.033 | 1.01 ± 0.014
F5H1D6 and related entries (UniProt Q07864) | 0.993 ± 0.035 | 0.987 ± 0.018
F6U236 and related entries (UniProt Q9BY11) | 0.954 ± 0.041 | 0.964 ± 0.075
F5H7W8 and related entries (UniProt Q96C57) | 1.06 ± 0.057 | 1.17 ± 0.028
F8W7U0 and related entries (UniProt Q15811) | 0.998 ± 0.021 | 0.998 ± 0.023
E9PHM2 and related entries (UniProt Q15031) | 1.01 ± 0.019 | 0.981 ± 0.024
F8W8D3 and related entries (UniProt Q14493) | 1.01 ± 0.016 | 1.05 ± 0.031
F5H2X7 and related entries (UniProt Q9ULV3) | 1.02 ± 0.041 | 1.03 ± 0.072
F6S7C4 and related entries (UniProt Q8NEM7) | 1.003 ± 0.0029 | 1 ± 0.041
F5GZ78 and related entries (UniProt P49023) | 0.961 ± 0.014 | 0.976 ± 0.029
F5H070 and related entries (UniProt Q9Y4C1) | 1.02 ± 0.032 | 0.978 ± 0.031
E9PJM3 and related entries (UniProt Q9UK99) | 0.992 ± 0.015 | 0.965 ± 0.055

Shown as a markdown table: entries from further up.

| Target | NP40-soluble protein abundance (concentration: 0.1mM) | NP40-soluble protein abundance (concentration: 0.5mM) |
| --- | --- | --- |
| F8VVA7 and related entries (UniProt P61923) | 1 ± 0.041 | 1.04 ± 0.1 |
| E9PLL1 and related entries (UniProt O76062) | 0.99 ± 0.051 | 0.953 ± 0.058 |
| E9PF32 and related entries (UniProt A2RUS2) | 0.995 ± 0.066 | 0.979 ± 0.051 |
| E9PF16 and related entries (UniProt Q96CM8) | 1.03 ± 0.035 | 0.989 ± 0.044 |
| E9PGC8 (UniProt P78559) | 0.984 ± 0.03 | 1 ± 0.046 |
| E9PM92 and related entries (UniProt O00193+E9PM92) | 1.03 ± 0.024 | 1.15 ± 0.12 |
| E9PQY3 and related entries (UniProt P11117) | 1.01 ± 0.02 | 0.983 ± 0.037 |
| F5H7T0 and related entries (UniProt Q96S38) | 0.996 ± 0.022 | 0.988 ± 0.017 |
| F5GYQ1 and related entries (UniProt P61421) | 1.04 ± 0.028 | 0.981 ± 0.084 |
| E7ESY0 and related entries (UniProt P32019) | 1 ± 0.04 | 0.969 ± 0.089 |
| E7EW84 and related entries (UniProt Q8TAG9) | 1.01 ± 0.029 | 1.007 ± 0.0056 |
| F8VS36 and related entries (UniProt Q92994) | 1.09 ± 0.049 | 0.993 ± 0.015 |
| F5H3X1 and related entries (UniProt Q6NXE6) | 1.03 ± 0.046 | 0.979 ± 0.04 |
| F5H514 and related entries (UniProt O95267) | 0.987 ± 0.013 | 1.01 ± 0.024 |
| F5H269 and related entries (UniProt Q9Y485) | 0.987 ± 0.033 | 1.01 ± 0.014 |
| F5H7W8 and related entries (UniProt Q96C57) | 1.06 ± 0.057 | 1.17 ± 0.028 |
| F8W7U0 and related entries (UniProt Q15811) | 0.998 ± 0.021 | 0.998 ± 0.023 |
| E9PHM2 and related entries (UniProt Q15031) | 1.01 ± 0.019 | 0.981 ± 0.024 |
| F6S7C4 and related entries (UniProt Q8NEM7) | 1.003 ± 0.0029 | 1 ± 0.041 |
| F5GZ78 and related entries (UniProt P49023) | 0.961 ± 0.014 | 0.976 ± 0.029 |
| E9PJM3 and related entries (UniProt Q9UK99) | 0.992 ± 0.015 | 0.965 ± 0.055 |

Following part:

Target | NP40-soluble protein abundance (concentration: 0.1mM) | NP40-soluble protein abundance (concentration: 0.5mM)
G3V1V0 and related entries (UniProt P60660) | 1.03 ± 0.062 | 1.17 ± 0.21
E7ESG2 and related entries (UniProt Q9HAW4) | 0.968 ± 0.033 | 1.02 ± 0.057
E7EU96 and related entries (UniProt P68400) | 1.1 ± 0.077 | 1.03 ± 0.14
E7ERD7 and related entries (UniProt Q9UKU0) | 1.01 ± 0.036 | 1.01 ± 0.018
E7EQR8 and related entries (UniProt Q9GZM5) | 1.01 ± 0.021 | 1.01 ± 0.02
E9PJH7 and related entries (UniProt Q9H936) | 1.01 ± 0.028 | 1.01 ± 0.032
F2Z2X4 and related entries (UniProt Q9C0E2) | 1 ± 0.049 | 0.965 ± 0.066
E9PF18 and related entries (UniProt Q16836) | 0.998 ± 0.039 | 1.03 ± 0.03
E9PCW1 and related entries (UniProt O95249) | 0.969 ± 0.038 | 1.01 ± 0.041
F8VUY8 and related entries (UniProt Q96QD8) | 0.983 ± 0.023 | 1.003 ± 0.0043
F5H858 and related entries (UniProt O75167) | 0.9998 ± 0.0038 | 0.993 ± 0.045
F5GXG6 and related entries (UniProt Q13889) | 1.02 ± 0.016 | 1.03 ± 0.064
G3V325 (UniProt P56134) | 0.998 ± 0.042 | 0.9723 ± 0.0015
E9PK61 and related entries (UniProt O14681) | 1.03 ± 0.031 | 0.998 ± 0.043
E9PH99 and related entries (UniProt Q9Y4E5) | 1.04 ± 0.044 | 1.05 ± 0.064
G3V1S4 and related entries (UniProt Q9Y324) | 1.001 ± 0.0077 | 1.011 ± 0.0098
F5GXX5 and related entries (UniProt P61803) | 1.022 ± 0.01 | 0.944 ± 0.14
F8VRH0 and related entries (UniProt Q15366) | 0.998 ± 0.053 | 1.04 ± 0.069
F8VX04 and related entries (UniProt Q9H2H9) | 1.02 ± 0.13 | 1.13 ± 0.24
F5GXX6 and related entries (UniProt Q9NQ89) | 0.9466 ± 0.00096 | 0.9697 ± 0.0083
E5RI98 and related entries (UniProt P06748) | 0.96 ± 0.034 | 0.998 ± 0.041
F5H0R1 and related entries (UniProt Q9H6E5) | 0.984 ± 0.027 | 0.951 ± 0.035
E9PGT3 and related entries (UniProt Q15418) | 1.01 ± 0.051 | 0.997 ± 0.075
E9PJQ6 and related entries (UniProt Q8IUX1) | 0.992 ± 0.022 | 1.06 ± 0.013

Target | NP40-soluble protein abundance (concentration: 0.1mM) | NP40-soluble protein abundance (concentration: 0.5mM)
F5GWA4 and related entries (UniProt Q9H3F6) | 1.0003 ± 0.00028 | 0.9762 ± 0.0025
F8W0Q9 and related entries (UniProt Q8NEY8) | 0.981 ± 0.03 | 0.977 ± 0.045
G3V3M6 and related entries (UniProt P27695) | 0.994 ± 0.098 | 1.06 ± 0.094
E7EN86 and related entries (UniProt P52747) | 0.972 ± 0.031 | 0.985 ± 0.033
E9PEI0 and related entries (UniProt Q69YH5) | 0.9663 ± 0.0086 | 0.9695 ± 0.0053
E7EQ52 and related entries (UniProt O95271) | 0.9761 ± 0.0063 | 0.946 ± 0.034
E5RJR5 and related entries (UniProt P63208) | 0.966 ± 0.029 | 1.05 ± 0.055
F8VSL3 and related entries (UniProt P25208) | 0.969 ± 0.027 | 1.01 ± 0.058
E7EMD6 and related entries (UniProt O43572) | 0.987 ± 0.028 | 0.987 ± 0.034
F5GZS6 and related entries (UniProt P08195) | 1 ± 0.033 | 1.01 ± 0.031
G3V1P3 and related entries (UniProt Q969J3+G3V1P3) | 1.01 ± 0.079 | 0.998 ± 0.035
E7EMS2 and related entries (UniProt P61916) | 0.932 ± 0.029 | 1.03 ± 0.058
E9PN10 and related entries (UniProt O00559) | 0.975 ± 0.035 | 1.04 ± 0.044
E7EQA9 and related entries (UniProt Q92844) | 0.968 ± 0.034 | 0.973 ± 0.02
E9PB61 and related entries (UniProt Q86V81) | 0.967 ± 0.017 | 0.991 ± 0.056
E7ESS3 and related entries (UniProt Q71RG4) | 0.977 ± 0.043 | 0.993 ± 0.033
E9PGT1 and related entries (UniProt Q15631) | 1.04 ± 0.073 | 1.03 ± 0.076
F5GXF9 and related entries (UniProt P51825) | 1.01 ± 0.044 | 1.01 ± 0.025
F8VVZ0 and related entries (UniProt P61020) | 1.02 ± 0.02 | 1.021 ± 0.0037
F8W8I6 and related entries (UniProt P31483) | 0.994 ± 0.022 | 0.98 ± 0.016
F8VXU5 and related entries (UniProt Q9UBQ0) | 1.01 ± 0.021 | 1 ± 0.11
E7EUI6 and related entries (UniProt P05556) | 0.941 ± 0.015 | 0.984 ± 0.049
